No constants are given. Whether binding was seen depends on the method and setting. A result given as binding can be weak or reduced; the word gives no strength. Tags and fused reporters may be left off the sequences shown.

This passage reports binding results from PMC4351679.

For this experiment, the target named is HerA-C-His (Sulfolobus islandicus). Kind of experiment: pull-down; His-tagged bait on nickel-agarose beads; proteins mixed at 70°C for 30 min in 25 mM Tris-HCl pH 9.0, 200 mM NaCl; wash with 25 mM imidazole, elution with 250 mM imidazole; Western blot with protein-specific antibodies; both purified. Background: In western blotting, separated proteins are transferred to a membrane and probed.

B1: PIN-domain ATPase (SiRe_1432), recombinant, without tag (enzyme, UniProt F0NID4 1-505)
chain: MNDLMLDKSALLFGVSKYLEKGIITGNVLIHKSLLAELERESNDGLVSAEIALDEVKKLKDITERILVNFEIVGDDSKKGEANELSREYCLEKGCIIVTADETQKKICDAMGIQYNFLQPLKQGLSFESFFDDETMSLHIKEDTVPRAKKGKPGNWKFVNLSDKPMLSTDVRMIANEIINAVRLIKGSFVEIERRGSLIIQLGNYRVVITRPPLSDGWEITITRPVVRKRLEDYNLDERLIKRLEERAEGIIIAGAPGMGKTTFAQALAEYYMRLGKIVKTIESPRDMHLPPEITQYSKNYAEIGELHDILLLSRPDYTVYDEMRNDEDFKLYVDLRLAGVGMVGVVHATSPIDAIHRFVNRVDIGTIPNILDTIIFINSGNVSKVYTLEMTVKVPAGLKEADLARPVVEIKDLATGNTEYEIYVFGEQTMIVPVNRGITMSNMEFKISKIVNNIIPNATVKYEDGEYVIVIPKEEIGKYNRKLVQRLKRLEKKNNIKIKIKLSD
For the molecule B1, the binding entry is “binds weakly”.

B2: Hjc (SiRe_1431), recombinant (enzyme, UniProt F0NID3 1-143)
chain: MNAKKRKGSAVERNIVGKLRDKGFAVVRAPASGSKRKDPIPDIIALKSGVIILIEMKSRKDKEGKIYVRREQAEGIMEFARKSGGTLFLGVKKPGVLKFIPFDKLRRTETGNYVADSEIEGLDLEDLVRLVEAKVSKTLDNFL
On to B2, for which the binding entry is “binds weakly”.
